Assay results published in article PMC4092868.
Results are given in words; binding and its absence hold for the method and conditions named. For some of these results: A result given as binding can be weak or reduced; the word gives no strength. For some of these results: Tags and fused reporters may be left off the sequences shown.

The chains behind the UniProt entries cited, without tags or fusion partners. Where a name states a change or a piece, a line headed by the entry shows the natural chain unless it says otherwise.
UniProt P48510: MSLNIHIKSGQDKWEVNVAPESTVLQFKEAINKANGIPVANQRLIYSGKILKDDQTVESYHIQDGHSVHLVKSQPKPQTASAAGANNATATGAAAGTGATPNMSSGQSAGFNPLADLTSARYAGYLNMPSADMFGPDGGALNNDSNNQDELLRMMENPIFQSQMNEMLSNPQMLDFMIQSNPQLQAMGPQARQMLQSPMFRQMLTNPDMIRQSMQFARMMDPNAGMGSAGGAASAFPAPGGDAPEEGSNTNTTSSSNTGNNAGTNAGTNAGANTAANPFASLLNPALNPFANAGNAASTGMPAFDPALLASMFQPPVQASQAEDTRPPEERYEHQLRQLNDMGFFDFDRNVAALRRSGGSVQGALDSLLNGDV
UniProt P40006: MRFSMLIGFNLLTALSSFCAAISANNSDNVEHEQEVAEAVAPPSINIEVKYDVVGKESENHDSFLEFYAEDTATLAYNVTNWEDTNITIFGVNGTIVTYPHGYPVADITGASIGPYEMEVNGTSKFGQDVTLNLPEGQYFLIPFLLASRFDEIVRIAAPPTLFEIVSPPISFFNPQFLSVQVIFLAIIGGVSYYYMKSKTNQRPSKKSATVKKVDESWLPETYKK

Experiments:
[1] = target: T1, GST-Pth2, recombinant from E. coli (S. cerevisiae) (UniProt P34222); assay: pull-down; in vitro; His6-T7-Irc22 mixed with GST fusions (recombinant proteins from E. coli, 1 mg) in lysis buffer and incubated with glutathione-Sepharose 4B, 1 h at 4 °C; immunoblot with anti-T7; both purified
T1 sequence: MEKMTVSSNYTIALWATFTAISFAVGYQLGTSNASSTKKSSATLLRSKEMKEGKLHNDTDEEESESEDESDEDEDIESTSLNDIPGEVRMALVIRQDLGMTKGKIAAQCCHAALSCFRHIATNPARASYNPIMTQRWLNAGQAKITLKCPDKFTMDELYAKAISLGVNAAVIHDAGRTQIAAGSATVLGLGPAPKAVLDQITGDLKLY

[2] = target: T2, GST-Rad23, recombinant from E. coli (S. cerevisiae) (UniProt P32628); assay: condition: recombinant proteins (1 mg) in 500 μL lysis buffer; pull-down; in vitro; His6-T7-Irc22 mixed with GST fusions (recombinant proteins from E. coli, 1 mg) in lysis buffer and incubated with glutathione-Sepharose 4B, 1 h at 4 °C; immunoblot with anti-T7; both purified
T2 sequence: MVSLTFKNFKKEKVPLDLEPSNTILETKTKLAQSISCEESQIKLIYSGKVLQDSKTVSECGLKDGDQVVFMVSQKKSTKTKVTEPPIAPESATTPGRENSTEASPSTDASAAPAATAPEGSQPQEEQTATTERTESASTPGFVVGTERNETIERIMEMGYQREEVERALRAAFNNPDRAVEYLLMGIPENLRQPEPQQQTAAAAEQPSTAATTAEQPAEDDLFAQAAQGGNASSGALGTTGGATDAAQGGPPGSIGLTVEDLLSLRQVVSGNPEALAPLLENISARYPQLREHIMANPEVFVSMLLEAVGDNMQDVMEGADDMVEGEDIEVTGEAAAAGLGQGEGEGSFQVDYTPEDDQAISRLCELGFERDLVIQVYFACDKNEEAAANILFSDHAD

[3] = target: T3, GST-Ddi1, recombinant from E. coli (S. cerevisiae) (UniProt P40087); assay: as above
T3 sequence: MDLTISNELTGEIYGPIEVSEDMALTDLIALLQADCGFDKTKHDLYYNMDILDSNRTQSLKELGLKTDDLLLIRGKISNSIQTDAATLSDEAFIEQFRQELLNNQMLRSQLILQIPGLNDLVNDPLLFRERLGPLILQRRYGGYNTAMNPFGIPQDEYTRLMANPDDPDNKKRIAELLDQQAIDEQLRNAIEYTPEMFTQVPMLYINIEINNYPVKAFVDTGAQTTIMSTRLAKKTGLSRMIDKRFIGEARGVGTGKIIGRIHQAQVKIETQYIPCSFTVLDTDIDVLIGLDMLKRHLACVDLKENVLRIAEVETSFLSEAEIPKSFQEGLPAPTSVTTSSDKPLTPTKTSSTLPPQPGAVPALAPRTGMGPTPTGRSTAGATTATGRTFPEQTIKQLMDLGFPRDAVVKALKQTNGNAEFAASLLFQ

[4] = target: GST-Dsk2, recombinant from E. coli (S. cerevisiae) (UniProt P48510); assay: as above

His6-T7-Irc22 (from UniProt P40006)
binding [1]: binds
binding [2]: no binding
binding [3]: no binding
binding [4]: no binding
